From patent US20260193348A1
Results are given in words; binding and its absence hold for the method and conditions named. Some results given as binding are weak or reduced against the parent protein; the word gives no strength.

Sequences of proteins named here, by UniProt entry; tags and fusion partners are left off. A change or cut given only in a name is not applied to a line headed by its entry.
UniProt P07766: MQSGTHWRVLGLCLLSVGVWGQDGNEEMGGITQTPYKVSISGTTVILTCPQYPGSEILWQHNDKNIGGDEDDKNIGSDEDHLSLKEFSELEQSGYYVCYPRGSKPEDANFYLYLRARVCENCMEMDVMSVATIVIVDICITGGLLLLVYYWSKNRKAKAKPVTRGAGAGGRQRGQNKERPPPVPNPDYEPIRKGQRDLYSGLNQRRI

Biological target: CD3εγ dimer (UniProt P07766)
Assay: ELISA, coated soluble protein

binding	Binder
binds	40E9-L2H3 (antibody, V domains shown) VH: EVQLVQSGAEVKKPGSSVKVSCKASGYTFSSYVIHWVRQAPGQCLEWMGYINPYNDVIKYNEKFKGRVTLTSDKSTSTAYMELSSLRSEDTAVYYCARDSYYSYDGFAYWGQGTLVTVSS VL: EIVLTQSPDFQSVTPKEKVTITCSASSSVSYMHWYQQKPDQSPKRLIYDTSKLASGVPSRFSGSGSGTDFTLTINSLEAEDAATYYCQQWSSNPPTFGCGTKVEIK
binds	40E9-L2H3-N55S.H (antibody, V domains shown) VH: EVQLVQSGAEVKKPGSSVKVSCKASGYTFSSYVIHWVRQAPGQCLEWMGYINPYSDVIKYNEKFKGRVTLTSDKSTSTAYMELSSLRSEDTAVYYCARDSYYSYDGFAYWGQGTLVTVSS VL: EIVLTQSPDFQSVTPKEKVTITCSASSSVSYMHWYQQKPDQSPKRLIYDTSKLASGVPSRFSGSGSGTDFTLTINSLEAEDAATYYCQQWSSNPPTFGCGTKVEIK
binds	ch40E9 (antibody, V domains shown) VH: EVQLQLSGPELVKPGASVKMSCKASGYTFSSYVIHWVKQKPGQGLEWIGYINPYNDVIKYNEKFKGKATLTSDKSSSTAYMELSSLTSEDSAVYYCARDSYYSYDGFAYWGQGTLVTVSA VL: QIVLTQSPAIMSASPGEKVTMTCSASSSVSYMHWYQQKSGTSPKRWIYDTSKLASGVPARFSGSGSGTSYSLTISSMEAEDAATYYCQQWSSNPPTFGGGTKVEIK
